This list was built around the results that the source calls inconclusive (neither active nor inactive); the mix of calls is not that of the screen. A potency beside an inconclusive call is a rough fit, not a confirmed value. The source made the active and inactive calls. Calls follow the shape of the dose curve; as a rule, active = well fitted inhibition curve with a large enough effect; inconclusive = small, poorly fitted or top-dose-only effect, or effect the other way; inactive = no such curve, though single readings can be large or run the other way.
Target: Nuclear receptor ROR-gamma (Mus musculus) (UniProt P51450)
Assay: Concentration response confirmation assay for inhibitors of ROR gamma transcriptional activity
Settings: Drosophila S2 Gal4-RORgamma UAS-luciferase, 20 h; series mostly up to 46.1 µM; activity change, negative = inhibition: at the top concentration
How it was run: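 Read-out: Photinus luciferase luminescence; inhibitors lower reporter signal. Insect Schneider cells with Gal4-ROR gamma fusion under metallothionein promoter, UAS reporter; 700 uM final copper sulfate induction, 20 hr, ambient temperature.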

By UniProt entry, the sequences of proteins in these tests, tags left out. Where a name states a change or a piece, a line headed by the entry shows the natural chain unless it says otherwise.
UniProt P51450: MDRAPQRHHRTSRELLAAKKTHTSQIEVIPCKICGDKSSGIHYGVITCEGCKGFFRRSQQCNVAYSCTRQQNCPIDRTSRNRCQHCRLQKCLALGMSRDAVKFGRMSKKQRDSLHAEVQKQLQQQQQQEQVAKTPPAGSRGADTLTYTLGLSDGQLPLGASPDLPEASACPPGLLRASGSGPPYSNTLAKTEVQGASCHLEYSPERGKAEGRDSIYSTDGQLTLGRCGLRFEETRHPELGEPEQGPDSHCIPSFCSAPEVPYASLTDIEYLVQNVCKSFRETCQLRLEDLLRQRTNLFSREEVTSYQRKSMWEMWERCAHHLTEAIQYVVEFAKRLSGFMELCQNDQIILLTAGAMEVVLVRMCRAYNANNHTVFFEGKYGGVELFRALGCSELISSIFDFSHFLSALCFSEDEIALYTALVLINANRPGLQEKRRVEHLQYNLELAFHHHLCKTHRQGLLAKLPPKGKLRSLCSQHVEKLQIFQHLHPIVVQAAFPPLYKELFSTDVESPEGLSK

SMILES | Potency | activity change, negative = inhibition
COc1ccc(C2=NN(C(C#N)c3ccc(OC)cc3)C(c3ccccc3)C2)cc1 (centres undefined) | inconclusive: 7.05 µM [activator, full curve, poor fit] | –
COc1ccc2oc(=O)c(C(=O)Nc3ccccc3C)cc2c1 | active: 1.25 µM | –
O=C(COc1ccccc1)NNc1nc2c(F)cccc2s1 | inconclusive: 0.0353 µM [activator, full curve, poor fit] | –
COC1CCCCC1Nc1cc(C)ccc1C (centres undefined) | inconclusive: 0.0035 µM [activator, full curve, poor fit] | –
O=C(/C=C/c1ccc(S(=O)(=O)N2CCOCC2)cc1)NC(=S)Nc1ccc(N2CCOCC2)cc1 | active: 9.96 µM | –
Cc1cc(NC(=O)CN2CCOCC2)n(-c2nc3ccccc3s2)n1 | active: 15.8 µM | –
O=C(NCC1CCCO1)C(C(=O)c1ccccc1)n1ccccc1=O (centres undefined) | – | inactive: -18.7%
CCOC(=O)c1nnsc1Nc1ccc(C)c(C)c1 | inconclusive: 35.3 µM [inhibitor, single point] | –
COc1ccc(-c2cnn3c(N)c(S(=O)(=O)C(C)(C)C)cnc23)cc1 | inconclusive: 14.1 µM [activator, partial curve, poor fit] | –
CCN(CC)c1ccc(/C=N/n2c(-c3ccccc3Br)n[nH]c2=S)cc1 | inconclusive: 0.996 µM [inhibitor, full curve] | –
CC(C)(C)S(=O)(=O)c1cnc2c(-c3ccsc3)cnn2c1N | active: 22.3 µM | –
COc1ccc(-c2nc(CS(=O)(=O)CC(=O)NCCc3ccc(C)cc3)c(C)o2)cc1 | inconclusive: 0.0004 µM [activator, full curve, poor fit] | –
CCOc1ccc2nc(NC(=O)c3cnccn3)sc2c1 | active: 3.15 µM | –
Cn1c(=O)[nH]c(=O)c2c1nc(NCc1ccco1)n2Cc1ccccc1Cl | inconclusive: 6.28 µM [activator, partial curve, poor fit] | –
CCOC(=O)C1CCN(c2ncnc3c2cnn3-c2ccc(OC)cc2)CC1 | – | inactive: 9.59%
COc1ccccc1CNC(=O)[C@@H](NC(=O)C1CCN(C(=O)[C@@H]2CCCN2C(=O)OC(C)(C)C)CC1)C(C)C | inconclusive: 15.8 µM [inhibitor, partial curve, poor fit] | –
COc1ccc2nc(N3C(=O)CNC3=S)sc2c1 | active: 1.99 µM | –

SMILES | Potency | activity change, negative = inhibition
COc1ccc(Cl)c(Cn2c(NCc3ccco3)nc3c2c(=O)n(C)c(=O)n3C)c1 | inconclusive: 6.28 µM [inhibitor, full curve, poor fit] | –
CC(C)CC(=O)NS(=O)(=O)c1ccc(N)cc1 | – | inactive: 2.46%
O=C(O)/C=C/C(=O)Nc1ccccc1SC(F)(F)F | – | inactive: 4.2%
COc1ccc2[nH]c(C)c(CCN(Cc3cccs3)C(=S)Nc3ccccc3OC)c2c1 | inconclusive: 9.96 µM [activator, full curve, poor fit] | –
CC(C)n1nc(C(=O)Nc2nc3ccccc3[nH]2)c2ccccc2c1=O | inconclusive: 25 µM [inhibitor, single point] | –
Cc1[nH]c2ccccc2c1CCN(Cc1cccs1)C(=S)Nc1ccccc1 | inconclusive: 35.3 µM [inhibitor, single point] | –
COC(=O)c1ccc(Oc2cc(C)nc(-n3nc(C)cc3C)n2)cc1 | active: 1.58 µM | –
COc1ccc(C(=O)Nc2nc3cc4c(cc3s2)OCCO4)c(OC)c1 | active: 0.0628 µM | –
CNc1cc(C(F)(F)F)nc(-c2ccccn2)n1 | active: 3.97 µM | –
CCN(CC)C1CC(=O)N(c2cccc(C)c2)C1=O (centres undefined) | inconclusive: 25 µM [inhibitor, single point] | –
CCn1cc(C(=O)O)c(=O)c2cc(F)c(N3CCN(C(=S)NC(=O)c4ccccc4C)CC3)cc21 | – | inactive: -24.2%
CC1Oc2ccccc2N(CC(=O)NCCN2CCOCC2)C1=O (centres undefined) | inconclusive: 25 µM [inhibitor, single point] | –
Brc1cc2c(cc1/C=N/Nc1nc(N3CCCCC3)nc(N3CCCCC3)n1)OCO2 | inconclusive: 0.0004 µM [activator] | –
CCCCCCn1ccc(=N)cc1 | inconclusive: 3.15 µM [activator, full curve] | –
COCCC1CCCCN1C(=O)c1cc(COc2ccc(-n3cncn3)cc2)on1 (centres undefined) | inconclusive: 4.99 µM [activator, partial curve] | –
Cc1ccc(OCCn2cc(C(=S)N3CCCC3)c3ccccc32)cc1C | active: 12.5 µM | –
COc1ccc(-c2cc(-c3nnc(COC(=O)c4ccncc4)o3)c3ccccc3n2)cc1OC | inconclusive: 11.2 µM [activator, partial curve] | –

Among those listed so far, 2 contain a furan ring, fused or not.
SMILES | Potency | activity change, negative = inhibition
Cn1c(=O)[nH]c(=O)c2c1nc(NCc1ccco1)n2Cc1ccccc1Cl | inconclusive: 6.28 µM [activator, partial curve, poor fit] | –
COc1ccc(Cl)c(Cn2c(NCc3ccco3)nc3c2c(=O)n(C)c(=O)n3C)c1 | inconclusive: 6.28 µM [inhibitor, full curve, poor fit] | –

Source: PubChem BioAssay AID2762 (National Center for Advancing Translational Sciences (NCATS), 2010)
